Test results from PubChem BioAssay AID2685 (National Center for Advancing Translational Sciences (NCATS), 2010).
This is one part of the list. The main result of the screen is listed elsewhere. These columns were measured beside it and carry no call. Compounds called inactive in the main read-out are mostly missing here. The note in brackets gives the kind of curve behind each potency; many fits are weak.

Assay: qHTS Assay for Lipid Storage Modulators in Drosophila S3 Cells;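 for cell number change: cells counted by Cell Tracker Red CMTPX staining in the red channel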
Conditions: BODIPY lipid droplet fluorescence, 18-24 h; for cell number change: measured here: cell count max response, cells fed with added oleic acid
How it was run: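 Drosophila S3 cells loaded with oleic acid (400 uM, as added) and compounds at several concentrations; lipid droplets imaged by 488-nm laser-scanning cytometry, 500–530 nm intensity and object ratio to cell channel. Percent activity normalized to 20 uM Triacsin C.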

[1] = measured here: lipid fluorescence (Fed channel) AC50, cells fed with added oleic acid
[2] = measured here: cell number channel AC50, cells fed with added oleic acid

Row | SMILES | cell number change [%] | AC50 [1] | AC50 [2]
1 | Cc1ccc2c(c1)N(CC(=O)NCCc1ccccc1)C(=O)c1cccnc1O2 | 13.5 | 0.92 µM [falling, partial curve, poor fit] | –
2 | Cc1ccc2c(N)c(C)ccc2c1 | 20.6 | – | –
3 | O=[N+]([O-])c1ccc(/C=N/NC2=NS(=O)(=O)c3ccccc32)cc1 | 22.2 | – | –
4 | O=C(O)c1ccccc1C(=O)NCc1ccc(F)cc1 | 14.2 | – | –
5 | O=C(Cc1csc(-c2ccccc2)n1)Nc1ccc(C(F)(F)F)cc1 | – | 20.6 µM [falling, single point] | –
6 | COc1cc2c(cc1NC(=O)CSc1nnc(Cc3cccs3)n1Cc1ccco1)oc1ccccc12 | 68.4 | 18.4 µM [rising, partial curve] | 9.2 µM [rising, partial curve]
7 | CC1(C)C[C@@H]2C[C@@](C)(CN2C(=O)c2ccccc2)C1 | -18.8 | 3.66 µM [falling, full curve] | –
8 | CCn1c(C2CCN(S(=O)(=O)c3ccc(OC)cc3)CC2)n[nH]c1=S | -2.77 | 0.116 µM [falling, full curve, poor fit] | –
9 | CCc1cc2c(=O)n(Cc3ccco3)c(SCc3c(C)noc3C)nc2s1 | – | 3.26 µM [rising, partial curve] | –
10 | CCCCc1ccc(NC(=O)CSc2nc3ncccc3[nH]2)cc1 | 14 | 20.6 µM [rising, single point] | –
11 | CCCS(=O)(=O)N1CCCC(C(=O)NCCN(C)Cc2ccccc2)C1 (configuration not stated) | -17 | 0.184 µM [falling, full curve, poor fit] | –
12 | CCOC(=O)C1=NN(C(C)=O)C2(CC(=O)N(c3ccc(C)c(C)c3)C2=O)C1 (configuration not stated) | 6.51 | 20.6 µM [falling, single point] | –
13 | COc1ccc(-n2ccnc2SCC(=O)NC2CCCC2)cc1 | 3.35 | – | –
14 | COc1ccc(CNC(=O)C(=O)NCC2OCCN2S(=O)(=O)c2ccc(F)cc2)cc1 (configuration not stated) | 19.5 | 0.58 µM [falling, single point] | –
15 | COc1cc(F)c(C2=CC(=O)C[C@H](c3ccc(Cl)cc3)C2)cc1F | 3.5 | 0.58 µM [falling, single point] | –
16 | CCOC(=O)N1CCN(C(=O)CSCC(=O)Nc2nc(-c3ccc(-c4ccccc4)cc3)cs2)CC1 | -55.5 | – | 29.1 µM [falling, single point]
17 | CCOC(=O)C1CCCN(C(=S)NC(=O)/C=C/c2ccc(F)cc2)C1 (configuration not stated) | 23.7 | 23.1 µM [rising, partial curve] | –
18 | CC(CCCC(C)(C)O)NC(=O)c1ccc2oc(CCc3ccccc3)nc2c1 (configuration not stated) | 6.08 | 6.51 µM [rising, single point] | –
19 | CCc1ccccc1NC(=O)CN1CCN(C(=O)CN2C(=O)NC3(CCCC3)C2=O)CC1 | -33.3 | 20.6 µM [falling, single point] | 0.0116 µM [falling, full curve, poor fit]
20 | COCCCNc1nc(N)c([N+](=O)[O-])c(Nc2cc(OC)ccc2OC)n1 | 39.8 | 23.1 µM [rising, single point] | 29.1 µM [rising, single point]

Row | SMILES | cell number change [%] | AC50 [1] | AC50 [2]
21 | C[C@@H](CSc1ccccc1)CN1CC[C@H](O)CCC1=O | -19.8 | 6.51 µM [rising, single point] | –
22 | Cc1ccc(OCC(=O)N/N=C\c2ccc(O)c([N+](=O)[O-])c2)c([N+](=O)[O-])c1 | – | 29.1 µM [rising, single point] | –
23 | Cc1cccc(C2CC(c3ccc(Cl)cc3)Nc3nc(N)nn32)c1 (configuration not stated) | – | 0.731 µM [rising, partial curve] | –
24 | CCCCCCCCCCCCN1C(=O)CSC1c1cccnc1 (configuration not stated) | -16.7 | 20.6 µM [falling, single point] | –
25 | O=C(CCCn1c(=O)[nH]c2cc(Cl)ccc2c1=O)NCCCN1CCCC1 | -84.5 | – | 29.1 µM [falling, single point]
26 | CCCC/C(O)=C1\C(=O)CCCC1=NCCc1c(C)[nH]c2ccccc12 | – | 1.46 µM [rising, partial curve] | –
27 | O=C(NCc1ccco1)c1ccc(Cl)c(S(=O)(=O)Nc2ccccc2)c1 | -30.3 | – | 16.4 µM [falling, partial curve]
28 | Cc1cc(-c2n[nH]c(=S)n2/N=C/c2sccc2C)n[nH]1 | -18.9 | 23.1 µM [falling, partial curve, poor fit] | 0.13 µM [rising, full curve, poor fit]
29 | O=C(C1=C[C@H](c2coc3ccccc3c2=O)C[C@H](OCCCCO)O1)N1CCN(Cc2ccccc2)CC1 | 15 | 2.59 µM [rising, full curve] | –
30 | O=C(CSCc1ccc(F)cc1)N1CCN(c2ccc(F)cc2)CC1 | -33.7 | – | 29.1 µM [falling, single point]
31 | C/C(=N\N=C1\NC(=O)C(CC(=O)Nc2ccccc2F)S1)C1CCCCC1 (configuration not stated) | -60.8 | – | 25.9 µM [falling, partial curve]
32 | CCCCOCC(O)Cn1c(C)nc2ccccc21 (configuration not stated) | -1.67 | 0.92 µM [rising, full curve, poor fit] | –
33 | O=C(O)CC(NCc1ccco1)C(=O)OCCCl (configuration not stated) | 6.51 | – | –
34 | COCCNC(=S)N1CCc2cc(OC)c(OC)cc2C1COc1ccc(F)cc1 (configuration not stated) | -33.9 | 6.51 µM [falling, partial curve] | –
35 | N=C(c1cccc([N+](=O)[O-])c1)N1CCCCC1 | 7.79 | 0.103 µM [rising, full curve, poor fit] | –
36 | CCC(CO)Nc1ncnc2c1cnn2-c1ccc(Cl)cc1 (configuration not stated) | 19.5 | – | –
37 | COc1cc(/C=C2/SC(=S)N(CCC(=O)Nc3ccccc3)C2=O)cc(OC)c1OC | – | 5.8 µM [falling, full curve] | –
38 | Cc1cccc(NC(=O)c2ccc(S(=O)(=O)N3CCCC3)cc2)c1C | -4.2 | – | –
39 | CCOc1ccccc1C(=O)N(Cc1ccc(C)o1)C1CCS(=O)(=O)C1 (configuration not stated) | -25.7 | 18.4 µM [falling, partial curve] | –
40 | Cc1ccccc1NC(=O)COc1ccc(Br)cc1C | 33.3 | 7.31 µM [rising, partial curve, poor fit] | 32.6 µM [rising, single point]

Of the compounds above, these contain a COOH group:
Row | SMILES | cell number change [%] | AC50 [1] | AC50 [2]
4 | O=C(O)c1ccccc1C(=O)NCc1ccc(F)cc1 | 14.2 | – | –
33 | O=C(O)CC(NCc1ccco1)C(=O)OCCCl (configuration not stated) | 6.51 | – | –
